Values quoted from earlier work, collected in patent publication US20020150968A1, “Glycoconjugate and sugar nucleotide synthesis using solid supports” (priority 2001, published 2002).
For at least one compound, name, drawing or mass did not settle the structure.

Test system: Sucrose synthase II
Settings: sucrose-synthesis direction, UDP-Glc as substrate; cited from earlier work

## [Mg+2] [Mg^2+]
  increase of enzyme activity: 2- and 4
